# Data as given in PubChem BioAssay AID1259424 (University of Nebraska Medical Center, 2018)
# Assay: 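Rank knockdowns across the genome by resemblance to the KSR1 depletion profile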 (primary screen)
# Cells: human HCT116 colon cancer cells
# Reagent: siRNA pool against human genes, 50 nM
# Detection: 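Six signature mRNAs by branched-DNA multiplex assay, scaled to two housekeeping genes and non-targeting median, log2; matched to mean KSR1 knockdown profile by Pearson correlation and euclidean distance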
# Scale: mean correlation with KSR1 profile and KSR1 correlation: higher = expression change more like KSR1 knockdown; mean distance from KSR1 profile: higher = expression change less like KSR1 knockdown
# The whole screen tested about 14,000 reagents; shown is an unselected part. 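Higher correlation or smaller distance means closer resemblance to KSR1 loss; control wells, including KSR1 knockdowns, recur on many plates.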 A reagent listed more than once was tested more than once; the source does not tell the runs apart. Further read-outs or replicates are left out here. Reagent sequences are not shown. Not stated in the record: the time to read-out.
Gene,mean correlation with KSR1 profile,mean distance from KSR1 profile,"KSR1 correlation, replicate 1","KSR1 correlation, replicate 2"
FOXD2,0.298,2.6,0.269,0.338
ITFG1,0.432,2.34,0.414,0.436
HRG,-0.103,3.36,-0.18,0.107
ZNF235,-0.102,2.32,-0.0719,-0.00441
TEX12,0.17,3.13,0.0534,-0.197
GAR1,0.134,1.16,0.0925,0.064
PBRM1,0.192,2.21,0.167,0.119
GRAMD1B,-0.686,2.77,-0.57,-0.55
ZFPL1,0.262,1.99,0.309,0.258
MAL,0.0318,2.33,0.0862,0.133
MAN1B1,-0.526,1.91,-0.596,-0.524
PQBP1,0.157,0.844,0.166,0.302
UBD,-0.325,2.38,-0.22,-0.523
C11orf68,-0.282,2.32,-0.531,-0.294
TMEM160,0.233,4.85,0.305,0.235
CDK5R2,0.42,1.2,0.425,-0.401
CCS,-0.196,2.78,-0.141,-0.082
DBT,0.391,1.36,0.262,0.481
SUSD2,-0.643,2.7,-0.688,-0.648
CCDC6,-0.0222,3.42,-0.0123,0.163
ANKRD55,0.371,2,0.457,0.535
DR1,-0.579,3.16,-0.54,-0.58
ZPBP,-0.227,1.12,0.0458,-0.383
CRCP,0.0477,1.49,-0.661,-0.416
ADRA1A,0.586,1.47,0.612,0.552
ADRA1A,0.00626,2.96,0.195,-0.232
GRHL2,-0.173,3.95,-0.108,-0.162
VN1R2,0.855,1.59,0.833,0.935
NLRC5,0.641,1.1,0.504,0.614
TMC7,0.251,2.87,0.351,0.286

Limited to “mean correlation with KSR1 profile” (2 entries from above):
ZPBP = -0.227
CRCP = 0.0477

Continued:
Gene,mean correlation with KSR1 profile,mean distance from KSR1 profile,"KSR1 correlation, replicate 1","KSR1 correlation, replicate 2"
SLK,0.169,2.24,0.438,0.219
FSTL5,-0.47,1.98,-0.467,-0.443
MARCKS,-0.361,4.65,-0.296,-0.436
DYNLL2,-0.635,2.82,-0.589,-0.686
TSPYL4,-0.101,1.32,-0.116,-0.406
KCNS3,-0.58,2.18,-0.622,-0.485
HEY1,0.586,1.08,0.489,0.687
MXD4,-0.243,1.54,0.356,0.216
TAF6,0.177,2.48,0.372,0.539
GALR1,0.283,1.67,-0.0294,0.279
MAGEL2,0.0966,2.7,0.149,0.0247
SST,0.293,4.08,0.551,0.431
MRPS11,0.127,1.53,0.0934,0.0597
ATOSB,0.246,1.89,0.0654,0.195
APOBEC3A,-0.443,4.42,-0.492,-0.469
PRKAR2A,0.448,1.49,0.727,0.346
PSMD10,-0.285,3,-0.0378,-0.486
GC,0.472,1.48,0.636,0.238
ARMCX1,-0.185,1.77,-0.312,-0.0948
SYNGR3,-0.182,2.29,-0.0861,-0.0512
